Source: article doi:10.1101/2019.12.19.882779
Results are given in words; binding and its absence hold for the method and conditions named. In cells and extracts the contact can be indirect. Some entries that bind do so weakly or less than the wild type. Tags and fused reporters may be left off the sequences shown.

The chains behind the UniProt entries cited, without tags or fusion partners.
UniProt P30052: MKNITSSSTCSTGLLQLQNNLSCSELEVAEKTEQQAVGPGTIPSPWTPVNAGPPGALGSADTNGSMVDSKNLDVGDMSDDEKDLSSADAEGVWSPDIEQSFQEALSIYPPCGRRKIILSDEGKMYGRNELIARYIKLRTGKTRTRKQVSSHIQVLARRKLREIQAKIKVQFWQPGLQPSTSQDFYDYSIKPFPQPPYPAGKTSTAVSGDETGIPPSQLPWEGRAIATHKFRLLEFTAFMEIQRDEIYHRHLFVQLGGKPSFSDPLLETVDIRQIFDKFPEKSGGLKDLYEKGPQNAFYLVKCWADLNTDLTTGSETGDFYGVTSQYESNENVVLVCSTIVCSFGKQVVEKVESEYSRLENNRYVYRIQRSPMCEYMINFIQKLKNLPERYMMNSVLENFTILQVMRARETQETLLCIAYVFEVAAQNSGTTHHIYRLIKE
UniProt P42003: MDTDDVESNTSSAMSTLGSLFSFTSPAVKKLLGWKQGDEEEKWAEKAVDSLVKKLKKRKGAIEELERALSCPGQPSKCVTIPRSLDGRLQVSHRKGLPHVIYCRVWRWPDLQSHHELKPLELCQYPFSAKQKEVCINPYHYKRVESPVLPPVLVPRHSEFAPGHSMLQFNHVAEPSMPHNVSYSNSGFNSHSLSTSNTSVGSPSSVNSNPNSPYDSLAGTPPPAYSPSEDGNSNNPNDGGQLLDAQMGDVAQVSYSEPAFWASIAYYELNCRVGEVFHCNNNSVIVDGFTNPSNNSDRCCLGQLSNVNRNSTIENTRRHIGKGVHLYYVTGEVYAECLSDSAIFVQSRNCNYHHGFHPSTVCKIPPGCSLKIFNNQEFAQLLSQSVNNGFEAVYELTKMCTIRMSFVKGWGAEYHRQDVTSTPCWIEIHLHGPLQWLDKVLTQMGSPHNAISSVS

T1: Flag-Firefly luciferase-Yki2 (Yorkie isoform with two WW domains, includes exon 3) (Drosophila) (UniProt Q45VV3)
T1 sequence: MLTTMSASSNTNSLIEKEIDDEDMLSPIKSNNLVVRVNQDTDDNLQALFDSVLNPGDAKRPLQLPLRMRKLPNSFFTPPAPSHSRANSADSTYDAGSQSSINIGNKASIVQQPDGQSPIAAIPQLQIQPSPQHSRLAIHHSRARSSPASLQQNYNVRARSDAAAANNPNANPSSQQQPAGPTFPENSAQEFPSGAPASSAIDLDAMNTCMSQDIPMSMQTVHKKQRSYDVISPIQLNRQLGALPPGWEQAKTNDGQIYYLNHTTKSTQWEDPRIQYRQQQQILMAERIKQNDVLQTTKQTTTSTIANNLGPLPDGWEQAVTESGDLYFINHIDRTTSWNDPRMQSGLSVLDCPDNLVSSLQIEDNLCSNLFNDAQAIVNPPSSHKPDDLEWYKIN

B1: GAF fused to Renilla luciferase (protein, UniProt Q08605 1-582)
chain: MSLPMNSLYSLTWGDYGTSLVSAIQLLRCHGDLVDCTLAAGGRSFPAHKIVLCAASPFLLDLLKNTPCKHPVVMLAGVNANDLEALLEFVYRGEVSVDHAQLPSLLQAAQCLNIQGLAPQTVTKDDYTTHSIQLQHMIPQHHDQDQLIATIATAPQQTVHAQVVEDIHHQGQILQATTQTNAAGQQQTIVTTDAAKHDQAVIQAFLPARKRKPRVKKMSPTAPKISKVEGMDTIMGTPTSSHGSGSVQQVLGENGAEGQLLSSTPIIKSEGQKVETIVTMDPNNMIPVTSANAATGEITPAQGATGSSGGNTSGVLSTPKAKRAKHPPGTEKPRSRSQSEQPATCPICYAVIRQSRNLRRHLELRHFAKPGVKKEKKTTSGKKSSSGSSGSGSGALSSSGSVPQVQTVQSLHTLQGVQVKKDPDAQQQQQQQQQQQQQQQQQAMTVSGATGGQVQQQVQQVQQQVQQQQQQQQQQQQQLQHHQIIDSSGNITTATTSAQAAAAAQQQAAGQQQQLVAQSDGSESGAPLSIAQVQTLQGHQIIGNLNQVNITDFQQQQPQQQQQQQQQQQQQQQQQQQTQQTL
B2: Hippo fused to Renilla luciferase (protein, UniProt Q8T0S6 1-669)
chain: MSEPEVTSVVDMKSPNISSSCSFFKLKKLSEESLLQPPEKVFDIMYKLGEGSYGSVYKAVHKESSSIVAIKLVPVESDLHEIIKEISIMQQCDSPYVVRYYGSYFKQYDLWICMEYCGAGSVSDIMRLRKKTLTEDEIATILSDTLQGLVYLHLRRKIHRDIKAANILLNTEGYAKLADFGVAGQLTDTMAKRNTVIGTPFWMAPEVIEEIGYDCVADIWSLGITALEMAEGKPPYGEIHPMRAIFMIPQKPPPSFREPDRWSTEFIDFVSKCLVKEPDDRATATELLEHEFIRNAKHRSILKPMLEETCAIREQQRANRSFGGVLAASQAKSLATQENGMQQHITDNAFMEDPGTLVPEKFGEYQQSSASDATMIAHAEQGVDEGTLGPGGLRNLSKAAAPAAASSAASPLDMPAVDSGTMVELESNLGTMVINSDSDDSTTAKNNDDQKPRNRYRPQFLEHFDRKNAGDGRGDEKPIATEYSPAAAEQQQQQQQQQQQQQQDEQHLASGANDLNNWEHNMEMQFQQISAINQYGLQQHQQQQQVLMAYPLMNEQLIALNNQPNLLLSNAAPMGQQGIPAAAPAQPPPAYQNQHMHTQSHAYVEGEFEFLKFLTFDDLNQRLCNIDHEMELEIEQLNKKYNAKRQPIVDAMNAKRKRQQNINNNLIKI
B3: Warts fused to Renilla luciferase (protein, UniProt Q9VA38 1-1105)
chain: MHPAGEKRGGRPNDKYTAEALESIKQDLTRFEVQNNHRNNQNYTPLRYTATNGRNDALTPDYHHAKQPMEPPPSASPAPDVVIPPPPAIVGQPGAGSISVSGVGVGVVGVANGRVPKMMTALMPNKLIRKPSIERDTASSHYLRCSPALDSGAGSSRSDSPHSHHTHQPSSRTVGNPGGNGGFSPSPSGFSEVAPPAPPPRNPTACSAATPPPPVPPTSQAYVKRRSPALNNRPPAIAPPTQRGNSPVITQNGLKNPQQQLTQQLKSLNLYPGGGSGAVVEPPPPYLIQGGAGGAAPPPPPPSYTASMQSRQSPTQSQQSDYRKSPSSGIYSATSAGSPSPITVSLPPAPLAKPQPRVYQARSQQPIIMQSVKSTQVQKPVLQTAVAPQSPSSASASNSPVHVLAAPPSYPQKSAAVVQQQQQAAAAAHQQQHQHQQSKPPTPTTPPLVGLNSKPNCLEPPSYAKSMQAKAATVVQQQQQQQQQQQQVQQQQVQQQQQQQQQQLQALRVLQAQAQRERDQRERDQRERERDQQKLANGNPGRQMLPPPPYQSNNNNNSEIKPPSCNNNNIQISNSNLATTPPIPPAKYNNNSSNTGANSSGGSNGSTGTTASSSTSCKKIKHASPIPERKKISKEKEEERKEFRIRQYSPQAFKFFMEQHIENVIKSYRQRTYRKNQLEKEMHKVGLPDQTQIEMRKMLNQKESNYIRLKRAKMDKSMFVKLKPIGVGAFGEVTLVSKIDTSNHLYAMKTLRKADVLKRNQVAHVKAERDILAEADNNWVVKLYYSFQDKDNLYFVMDYIPGGDLMSLLIKLGIFEEELARFYIAEVTCAVDSVHKMGFIHRDIKPDNILIDRDGHIKLTDFGLCTGFRWTHNSKYYQENGNHSRQDSMEPWEEYSENGPKPTVLERRRMRDHQRVLAHSLVGTPNYIAPEVLERSGYTQLCDYWSVGVILYEMLVGQPPFLANSPLETQQKVINWEKTLHIPPQAELSREATDLIRRLCASADKRLGKSVDEVKSHDFFKGIDFADMRKQKAPYIPEIKHPTDTSNFDPVDPEKLRSNDSTMSSGDDVDQNDRTFHGFFEFTFRRFFDDKQPPDMTDDQAPVYV
B4: Ex fused to Renilla luciferase (protein, UniProt Q07436 1-1427)
chain: MRAFCTVSAPLEVCASSAEQLSPGSRFLALRLLGQQQPKTLYFLVDAKSRVREVYTQTCLHFATQGMLDTELFGLAVLIDGEYMFADPESKLSKYGPKSWRSSHTHGLDANGRPLLELHFRVQFYIESPFMLKDETSRHNYYLQLRHNILQRDLPREQAEQALVFLAGLALQADLGDAPPGTSNSKDDSGEETSASPSNGGRGLSATTTLPKISKRANERMLRLSTYVASTSKRETIPLPPSLPPNGADYYRIEDYLPSGLHTPWARSAMRACHREHLGMATAEAELLYIQQACSLHETINAHTYRMRLAKSEQGSGSAWFVVYAKGIKILGGESTNSSSNPETTTFLWPNITKLSFERKKFEIRSGESRITLYAASDEKNKLLLTLCKDTHQWSMKLAARLKEVSKREEEEAAESQRLHASYACSRSLLLPYKSKNEQRISVISSTSSNTTSGIVSDRVHSEDELEIMINTPPAPLAAPSTESLALAHLLDRPSVSRQTSSVGQMSLKDLEEQLAALSVRPQDASSNGATIVTNSSVQRNSMGTTANDSSTATDSPSSQHNIGSQCSSTCSTVVVTSPVNGAGASSSGAPIPVHSTSSSLELGFSHTAQNSALSETSPDDFLSTSAREETESVSGASGVYTLAHGAPPTETSGVYTMHSSELTGQSSEIAESEKSSHYGMFQPQKLEETHVQHSDSVDGKKKEDFRPRSDSNVSTGSSFRGDGSDPTDNKHSLLSAEELTNLIVGRGTYPSRKTVSSSLHSDCDYVTLPLGDQGEEEVDQPPAPPPPYSARHEKTGLCGPPIAKPIPKPIAVVAPKPDSPPCSPPVPPAPIPAPPPAIRRRDPPPYSISSKPRPTSLISVSSSAHPAPSAAGSMSSLKSEEVTARFITTRPQISILKAHTSLIPDGAKPSYAAPHHCSSVASSNGSVCSHQLSQQSLHNSNYAGGSQASLHHHHVPSHHRHSGSAAIGIVPYGLHKSTASLHHQQSCVLLPVIKPRQFLAPPPPSLPRQPPPPPPPNHPHLASHLYEREMARKQLELYQQQLYSDVDYVIYPIQDPAVSQQEYLDAKQGSLLAAMAQAAPPPPHHPYLAMQVSPAIYRSTPYLPLTLSTHSRYASTQNLSDTYVQLPGPGYSPLYSPSMASLCSSYEPPPPPPLHPAALAAAAAAGAGSSSSSMFARSRSDDNILNSLDLLPKGKRLPPPPPPPYVNRRLKKPPMPAPSEKPPPIPSKPIPSRMSPIPPRKPPTLNPHHANSPLTKTSSGAQWAGERPRPDLGLGLGLNRGNNSILAQLQASMVAQSHAQAQAQALDIALLREKSKHLDLPLISALCNDRSLLKQTKVVINPKTGQEMPTSSAQPSGATTNGVANSSAGAGTLSKARKGSTVSHRHPQDKLPPLPVQQLAEANNYVIDPAVMMKQQQQQQQHNKTS
B5: Hth fused to Renilla luciferase (protein, UniProt O46339 1-487)
chain: MAQPRYDDGLHGYGMDSGAAAAAMYDPHAGHRPPGLQGLPSHHSPHMTHAAAAAATVGMHGYHSGAGGHGTPSHVSPVGNHLMGAIPEVHKRDKDAIYEHPLFPLLALIFEKCELATCTPREPGVQGGDVCSSESFNEDIAMFSKQIRSQKPYYTADPEVDSLMVQAIQVLRFHLLELEKVHELCDNFCHRYISCLKGKMPIDLVIDERDTTKPPELGSANGEGRSNADSTSHTDGASTPDVRPPSSSLSYGGAMNDDARSPGAGSTPGPLSQQPPALDTSDPDGKFLSSLNPSELTYDGRWCRREWSSPADARNADASRRLYSSVFLGSPDNFGTSASGDASNASIGSGEGTGEEDDDASGKKNQKKRGIFPKVATNILRAWLFQHLTHPYPSEDQKKQLAQDTGLTILQVNNWFINARRRIVQPMIDQSNRAVYTPHPGPSGYGHDAMGYMMDSQAHMMHRPPGDPGFHQGYPHYPPAEYYGQHL

Target: T1, Flag-Firefly luciferase-Yki2 (Yorkie isoform with two WW domains, includes exon 3) (Drosophila)
Assay: co-IP

binding, binds:
Scalloped fused to Renilla luciferase (from UniProt P30052 1-440)
MAD fused to Renilla luciferase (from UniProt P42003 1-455)
B1
B2
B3
B4
B5
